Earlier results, collected in US11273190B2, “Composition of heat-killed yeast and taurine or a phytomedicine for the treatment of chronic inflammation” (priority 2019, dated 2022).
At least one compound was matched to its structure with a doubt left.

System: GABA-A receptor
Conditions: biflavones of Rhus parviflora

Q: For `O=c1cc(-c2ccc(O)c(-c3c(O)cc(O)c4c(=O)cc(-c5ccc(O)cc5)oc34)c2)oc2cc(O)cc(O)c12` [amentoflavone], which “affinity for the GABA-A receptor” value is on record?
A: good affinity
